Measured values published in publication PMC5932489.
No constants are given. Whether binding was seen depends on the method and setting. Binding seen in cells or lysates may run through a third protein. Some results given as binding are weak or reduced against the parent protein; the word gives no strength.

Chains of the proteins cited; added tags and fusions are not shown.
UniProt O00327: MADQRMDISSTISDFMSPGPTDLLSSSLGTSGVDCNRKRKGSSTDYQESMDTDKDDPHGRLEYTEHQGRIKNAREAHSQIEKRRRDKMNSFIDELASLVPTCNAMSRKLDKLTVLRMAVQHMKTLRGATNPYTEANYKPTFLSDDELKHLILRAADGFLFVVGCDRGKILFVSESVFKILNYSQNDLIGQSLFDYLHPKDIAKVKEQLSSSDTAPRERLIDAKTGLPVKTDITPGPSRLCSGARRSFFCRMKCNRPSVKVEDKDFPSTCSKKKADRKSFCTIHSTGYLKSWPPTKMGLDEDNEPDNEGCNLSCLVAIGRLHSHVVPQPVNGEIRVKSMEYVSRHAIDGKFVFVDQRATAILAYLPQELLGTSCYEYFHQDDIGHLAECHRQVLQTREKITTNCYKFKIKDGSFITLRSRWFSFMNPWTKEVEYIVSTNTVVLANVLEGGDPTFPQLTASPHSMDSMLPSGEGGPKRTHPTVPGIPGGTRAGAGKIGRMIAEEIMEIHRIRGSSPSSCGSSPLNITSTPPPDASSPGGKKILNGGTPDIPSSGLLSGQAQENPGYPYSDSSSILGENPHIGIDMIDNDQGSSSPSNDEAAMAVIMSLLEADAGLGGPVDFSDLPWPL

Target: brain and muscle Arnt-like protein 1 (BMAL1) (human (endogenous in SH-SY5Y)) (UniProt O00327)
Assay: co-IP; SH-SY5Y cell lysates 24 h after 6-OHDA treatment (control, 6-OHDA, resveratrol pretreatment + 6-OHDA); anti-BMAL1 antibody overnight at 4°C, protein A/G-agarose beads 2 h at room temperature, washed with PBS; blot for CRY1 and BMAL1

- binding: binds
B1: cryptochrome 1 (CRY1) (protein, UniProt Q16526 1-586)
chain: MGVNAVHWFRKGLRLHDNPALKECIQGADTIRCVYILDPWFAGSSNVGINRWRFLLQCLEDLDANLRKLNSRLFVIRGQPADVFPRLFKEWNITKLSIEYDSEPFGKERDAAIKKLATEAGVEVIVRISHTLYDLDKIIELNGGQPPLTYKRFQTLISKMEPLEIPVETITSEVIEKCTTPLSDDHDEKYGVPSLEELGFDTDGLSSAVWPGGETEALTRLERHLERKAWVANFERPRMNANSLLASPTGLSPYLRFGCLSCRLFYFKLTDLYKKVKKNSSPPLSLYGQLLWREFFYTAATNNPRFDKMEGNPICVQIPWDKNPEALAKWAEGRTGFPWIDAIMTQLRQEGWIHHLARHAVACFLTRGDLWISWEEGMKVFEELLLDADWSINAGSWMWLSCSSFFQQFFHCYCPVGFGRRTDPNGDYIRRYLPVLRGFPAKYIYDPWNAPEGIQKVAKCLIGVNYPKPMVNHAEASRLNIERMKQIYQQLSRYRGLGLLASVPSNPNGNGGFMGYSAENIPGCSSSGSCSQGSGILHYAHGDSQQTHLLKQGRSSMGTGLSGGKRPSQEEDTQSIGPKVQRQSTN
